Laboratory results: publication PMC10590452
No constants are given. Whether binding was seen depends on the method and setting. Binding seen in cells or lysates may run through a third protein. A yes stands for co-enrichment or nearness to the bait. Other partners may have been found.

Amino acid sequences for entries named in this document (tags omitted). Residues count along the entry.
UniProt Q9NZC2, residues 19-174: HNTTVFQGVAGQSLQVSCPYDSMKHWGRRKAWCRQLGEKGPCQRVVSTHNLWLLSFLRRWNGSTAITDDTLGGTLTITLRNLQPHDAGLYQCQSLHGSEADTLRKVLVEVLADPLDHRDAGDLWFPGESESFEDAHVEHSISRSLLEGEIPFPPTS
UniProt P37802: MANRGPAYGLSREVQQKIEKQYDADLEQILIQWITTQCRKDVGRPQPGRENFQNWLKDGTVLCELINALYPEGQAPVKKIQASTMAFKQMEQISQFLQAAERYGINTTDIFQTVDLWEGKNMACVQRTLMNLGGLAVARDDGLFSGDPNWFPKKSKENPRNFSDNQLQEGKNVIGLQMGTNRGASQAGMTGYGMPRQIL

Target: Fc-tagged human soluble TREM2 (Fc-sTREM2) (human) (UniProt Q9NZC2)
Test: affinity purification with mass spectrometry; membrane protein of SH-SY5Y cells incubated with Fc-sTREM2 and Protein A agarose for 24 h; LC-MS/MS; only the target purified

binding: binds
Substance: transgelin-2 (TG2), endogenous in SH-SY5Y cells (from UniProt P37802 1-199)
